pKd: −log10 of the molar value. For at least one entry, the source does not settle the construct or the ends of the probe. Protein sequences can lack the tags named with them.

For this series, the target named is T1, Hop1 CBR WT (Saccharomyces cerevisiae) (UniProt P20050).
T1 sequence (looked up): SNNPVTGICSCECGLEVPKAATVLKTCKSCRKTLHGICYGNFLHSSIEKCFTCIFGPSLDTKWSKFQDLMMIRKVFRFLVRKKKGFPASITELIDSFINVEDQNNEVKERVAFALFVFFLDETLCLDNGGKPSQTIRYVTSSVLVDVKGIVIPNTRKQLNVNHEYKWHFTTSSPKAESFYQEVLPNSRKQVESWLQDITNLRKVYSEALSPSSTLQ
Briefly: EMSA. The settings on record: EMSA: 20 mM Tris-HCl pH 7.5, 25 mM NaCl, 2 mM beta-mercaptoethanol, 10% glycerol; 50 nM nucleosome or DNA; 15 min room temperature; 6% TBE-acrylamide gel, 0.2X TBE, 4 C; recombinant protein; residues 322-537.

As to “GAGGCCGCTCAATTGGTCGTAGACAGCTCTAGCACCG (double strand) [40-bp DNA from Widom 601]”, the pKd was 5.68.

For the origin of these results see paper PMC10907721.
